According to article PMC4409382, “Structural Analysis of the 14-3-3ζ/Chibby Interaction Involved in Wnt/β-Catenin Signaling” (PLoS ONE, 2015):
These are yes or no findings as the source states them, for the method shown.

B1: Cby S20D 13-mer (peptide)
peptide: KTPPRKSADLSNL
B2: Cby S20E 13-mer (peptide)
peptide: KTPPRKSAELSNL

Target: T1, 14-3-3ζ (human, full-length) (human, UniProt P63104 1-245)
T1 construct: N-terminal glycine retained after TEV cleavage of the His tag; 14-3-3ζ, human, ORF bought from GeneCopoeia, in Gateway pDEST17; full-length; Dimer in the crystal; the ITC stoichiometry counts on the 14-3-3 monomer; also called WT 14-3-3ζ; source: E. coli BL21 (DE3) pLysS, purified (Ni Sepharose, TEV cleavage, second Ni Sepharose pass); not shown: His tag, N-terminal, cleaved
T1 sequence: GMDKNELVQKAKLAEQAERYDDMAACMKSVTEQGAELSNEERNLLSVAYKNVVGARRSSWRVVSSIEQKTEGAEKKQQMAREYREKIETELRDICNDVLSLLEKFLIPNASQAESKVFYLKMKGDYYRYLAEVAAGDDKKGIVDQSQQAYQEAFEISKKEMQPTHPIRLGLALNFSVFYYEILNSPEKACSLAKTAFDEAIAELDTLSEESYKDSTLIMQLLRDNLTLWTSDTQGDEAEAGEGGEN
Experiment: condition: ~1-2 mM peptide titrated into ~100-200 uM 14-3-3ζ (typical experiment); ITC; VP-ITC, 25°C; ~1-2 mM peptide titrated in 5 uL aliquots into ~100-200 uM 14-3-3ζ in the cell; 50 mM sodium phosphate, 100 mM NaCl, 1 mM DTT, pH 6.8; one-site model; in duplicate; both purified

Binder | binding
B1 | no binding
B2 | no binding
